The values below come from PubChem BioAssay AID504466 (National Center for Advancing Translational Sciences (NCATS), 2011).

Among all 330,000 compounds or so, about 4,200 (1.3%) were called active. Roughly 6% stayed inconclusive and do not appear here. Calls follow the shape of the dose curve; as a rule, active = well fitted activation curve with a large enough effect; inconclusive = small, poorly fitted or top-dose-only effect; inactive = no such curve, though single readings can be large or run the other way. The list shows a part of the results, in another mix than the full data. Where no call is shown, the source filed none.
Potency is read from the fitted curve at half-maximal effect.

A short description of the experiment: qHTS screen for small molecules that induce genotoxicity in human embryonic kidney (HEK293T) cells expressing luciferase-tagged ELG1. Also: nearly all actives have a fitted effect of over 60% in size. As to activity change, positive = activation: % of control where 0% means no effect. The settings on record: HEK293T ELG1-luciferase reporter, luminescence, 16 h; activity change, positive = activation: at 46 µM (top of the series). Summed up:
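Luminescence read-out: rising ELG1-luciferase signal, reflecting elevated ELG1 protein under genetic stress, flags genotoxic compounds. Cells were treated for 16 hr at 37 °C before ONE-Glo detection.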
For `CCOc1cc(S(=O)(=O)n2cc(-c3ccc(F)cc3)c(N)n2)cc(OCC)c1OCC`, the “activity change, positive = activation” value is inactive: -22%.

Consider `CSCC[C@H](NC(=O)OC(C)(C)C)C(=O)N1CCC(C(=O)N[C@@H](C)C(=O)NCc2ccc(F)cc2)CC1`, for which the activity change, positive = activation was 10.9%.

For the compound `O=C(O)c1cccc(COc2ccc(CO)cc2Cl)c1`, the activity change, positive = activation was -55.6%.

In the case of `O=C1c2c(O)ccc(O)c2C(=O)c2c(NCCNCCO)ccc(NCCNCCO)c21`, the “activity change, positive = activation” value is inactive: -58.8%.

As for `CCOC(=O)c1cnc(Nc2nc3ccccc3o2)nc1C`, the activity change, positive = activation was -10.1%.

`Cc1ccc(C)c(NC(=O)CN(C)C(=O)c2oc3c(Cl)cccc3c2C)c1`: the activity change, positive = activation was -9.52%.

As for `COc1cccc(NC(=O)CSc2nnc(-c3ccc(C)cc3)o2)c1`, the Potency is active: 10.3 µM.

Regarding `O=S1(=O)C=C(Sc2nc3ccccc3s2)c2ccccc21`, the “activity change, positive = activation” value was inactive: -44.7%.

On to `Cn1c(-c2ccc(F)cc2)cnc1NCc1ccccc1`, for which the activity change, positive = activation is 29.6%.

For `CS(=O)(=O)c1cnc2c(-c3ccsc3)cnn2c1N`, the Potency is active: 20.6 µM.

Consider `O=C(Cn1c(=O)n(-c2ccc(F)cc2)c(=O)c2sccc21)c1ccccc1`, for which the activity change, positive = activation came to 3.03%.

As for `Cc1nnc(NC(=O)c2ccc3ccccc3c2)s1`, the Potency was active: 4.61 µM.

`O=c1nc(N/N=C/c2c[nH]c3ccccc23)cn[nH]1`: the Potency is active: 10.3 µM.

With `N/C(=N\OC(=O)c1ccc(Cl)cc1)c1ccn[nH]1`, the Potency is active: 2.59 µM.

For the compound `CCOc1cc(Br)c(CN2C(=O)NC3(CCCCCC3)C2=O)cc1OCC`, the “activity change, positive = activation” value is inactive: -37.4%.

Take `Cn1c(=O)c2c(ncn2CC(=O)N2CCN(c3ccccc3)CC2)n(C)c1=O`: the activity change, positive = activation amounted to 3.46%.

`O=C(c1ccccc1)C1CCN(C(=O)c2c(F)cccc2F)CC1`: the activity change, positive = activation was 0.0707%.

In the case of `COc1ccc(OCc2cccc(C(=O)O)c2)cc1`, the activity change, positive = activation is -50.2%.

Take `CC(C)C(C(=O)NCc1ccco1)N(C(=O)CNS(=O)(=O)c1ccccc1)C1CCCC1` (stereo not drawn): the activity change, positive = activation stood at 51.6%.

With `CC1CN(c2ncnc3c2cnn3-c2ccc(Cl)cc2)CC(C)O1` (stereo not drawn), the Potency was active: 2.06 µM.

Turning to `Cc1sc(NC(=O)c2ccco2)nc1-c1ccc2c(c1)CC(C)N2C(=O)C1CC1` (stereo not drawn), the “activity change, positive = activation” value is inactive: -31.2%.

Regarding `CCc1ccc(/C(C)=N/NC(=O)c2ccc(-n3cnnn3)cc2)cc1`, the activity change, positive = activation stood at 18.5%.

As for `COc1ccc(-c2nnn(CC(=O)N3CCOCC3)n2)cc1`, the activity change, positive = activation turned out to be 39.1%.
